Data as given in PubChem BioAssay AID1347076 (National Center for Advancing Translational Sciences (NCATS), 2019).
Several values for one entry are separate records, joined by “and”; a condition that tells them apart may be missing. Identical values can stand only once. Among all 400,000 compounds or so, about 13,000 (3.2%) were called active. Inconclusive means that the source gave no clear call. Such entries were picked first, then a sample of the others. Calls follow the shape of the dose curve; as a rule, active = well fitted cell-killing curve with a large enough effect; inconclusive = small, poorly fitted or top-dose-only effect, or effect the other way; inactive = flat fitted curve, though single readings scatter. Where the call is inconclusive, the potency comes from a doubtful curve fit.
% is scaled to controls: 0 for no effect and ±100 for the full control effect; potency is read from the fitted curve at half-maximal effect.

Test: qHTS assay for MDR1-selective chemotherapeutics: Primary screen using the drug-selected MDR subline cells KB-V1; also: nearly all actives have a fitted effect of over 60% in size
Settings: KB-V1 MDR cells viability, CellTiter-Glo, 72 h; activity change, negative = cytotoxicity: at 46.1 µM (top of the series)
How it was run: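 Cytotoxicity via CellTiter-Glo luminescence after 72 h compound exposure at 37 degrees C. Cells: drug-selected KB-V1 line, DMEM phenol-red free plus 10% FBS. Compounds tested at multiple concentrations; normalized data fitted to concentration-effect curves.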
In the case of COc1ccccc1N1CCN(c2ncnc3onc(C)c23)CC1, the Potency is reported as inconclusive: 32.6 µM [cytotoxic, single point]. In the case of CC1=C(C(=O)Nc2ccc(C)cn2)C(c2cnn(C)c2)C2=C(CCCC2=O)N1 (centres undefined), the Potency is reported as inconclusive: 5.8 µM [rising, partial curve]. In the case of Cc1c(C(=O)N2CCN(c3ccc(F)cc3)CC2)sc2nc(-c3ccccc3)cn12, the “activity change, negative = cytotoxicity” value is reported as inactive: -0.092%. For CCN1CCN(CCCNC(=O)c2ccc3c(c2)sc2nc(-c4ccc(C)cc4)cn23)CC1, the Potency was inconclusive: 20.6 µM [cytotoxic, single point]. In the case of CCn1nc(C)c(/C=N\NC(=O)c2cccc(OC)c2)c1C, the Potency is reported as inconclusive: 29.1 µM [cytotoxic, single point]. In the case of O=C1C2CC=C(Cl)CC2C(=O)N1c1ncn[nH]1 (centres undefined), the “activity change, negative = cytotoxicity” value is reported as inactive: 2.09%. With COc1cccc(N2CCN(C(=O)Cn3ncc4c(=O)oc5ccccc5c43)CC2)c1 the “activity change, negative = cytotoxicity” value was inactive: -10.1%. With COc1ccc(C(=O)/C=C/c2cc(OC)c(O)c(OC)c2)c(F)c1 the Potency was inconclusive: 29.1 µM [cytotoxic, single point]. With C#CCOCCOCCOCCNc1nc(N2CCN(C(=O)CCCCCCCCCCNC(=O)Cn3cc(C[C@@H](C)O)nn3)CC2)nc(N2CCN(C(=O)CCCCCCCCCCNC(=O)[C@H](CCCN=C(N)N)n3cc(C[C@@H](C)CC)nn3)CC2)n1 the Potency was inconclusive: 29.1 µM [cytotoxic, single point]. For N/C(CCS(=O)(=O)c1ccc(Cl)cc1)=N\OC(=O)c1ccccc1C(F)(F)F, the Potency was inconclusive: 29.1 µM [cytotoxic, single point]. With CCOP(=O)(OCC)c1nc(-c2ccc(Cl)cc2Cl)oc1N1CCOCC1 the “activity change, negative = cytotoxicity” value was inactive: 0%. In the case of COc1ccc(CCNC(=O)C(=O)c2c(C)n(C)c3ccccc23)cc1OC, the Potency is reported as inconclusive: 29.1 µM [rising, single point]. In the case of Cc1cccc2c(=O)cc(C)n(CC(=O)N3CCCCC3)c12, the Potency is reported as active: 16.4 µM. In the case of CC(C)CC1C(=O)N(Cc2cn(CCC3OCCCO3)nn2)CCS(=O)(=O)N1Cc1ccc(-c2ccc(Cl)c(Cl)c2)cc1 (centres undefined), the Potency is reported as inconclusive: 18.4 µM [cytotoxic, single point]. With COc1cc(/C=C(\C#N)C(=O)c2ccc(O)c(O)c2)cc(I)c1O the “activity change, negative = cytotoxicity” value was inactive: -14.4%. For COc1ccc(OCc2nnc3n2N=C(c2ccc(OC)cc2)CS3)cc1, the Potency was inconclusive: 29.1 µM [cytotoxic, single point]. For CNC(=O)N(C1=NCC(C)S1)c1ccc(F)cc1F (centres undefined), the Potency was inconclusive: 18.4 µM [cytotoxic, single point]. For COc1cc(-c2nc3cnccn3c2Nc2ccc(C(C)C)cc2)ccc1O, the “activity change, negative = cytotoxicity” value was inactive: 9.94%. With COc1ccc([C@H]2[C@H](C(=O)OC(C)(C)C)N3N=Cc4ccccc4C3C23C(=O)c2ccccc2C3=O)c(OC)c1 (some centres undefined) the Potency was inconclusive: 8.2 µM [cytotoxic, partial curve]. For O=C(CN1CCN(c2ncccn2)CC1)Nc1ccccc1C(F)(F)F, the Potency was inconclusive: 10.3 µM [cytotoxic, partial curve]. For COc1ccc(O)c(CN2CC3CCC(CC3)C2)c1, the “activity change, negative = cytotoxicity” value was inactive: 13.2%. With CCc1ccc(C2=NN(CCC(=O)NCc3cccs3)C(=O)CC2)cc1 the Potency was inconclusive: 16.4 µM [cytotoxic, partial curve]. With CCOC(=O)c1ccc(NC(=O)C2(N3C(=O)c4ccccc4C3=O)CCCC2)cc1 the Potency was inconclusive: 2.91 µM [rising, partial curve]. In the case of Cc1ccc(Oc2ccc(Cl)cc2NC(=O)c2ccc(F)cc2F)cc1, the “activity change, negative = cytotoxicity” value is reported as inactive: 0.511%. For COc1ccc(NC(=O)c2ccco2)cc1NC(=O)c1cccs1, the Potency was active: 8.2 µM. For Cn1cccc1C(=O)N1CCN(c2cccc(C(F)(F)F)c2)CC1, the Potency was active: 14.6 µM. With COc1ccccc1NC(=O)C(C)OC(=O)C1CC(=O)N(Cc2ccco2)C1 (centres undefined) the Potency was inconclusive: 20.6 µM [rising, single point]. With CCOc1ccc(NS(=O)(=O)c2cc(Cl)ccc2OC)cc1 the Potency was inconclusive: 3.26 µM [cytotoxic, partial curve, poor fit]. With O=C(NCC(c1cccs1)N1CCOCC1)c1cc(-c2ccc(F)cc2)nc2ccccc12 (centres undefined) the Potency was active: 20.6 µM. With Cc1cc(C(=O)CSCCCn2c(=O)[nH]c3ccccc32)c(C)n1C the “activity change, negative = cytotoxicity” value was inactive: -14.4%. With CC(C)N(C(=O)COC(=O)c1cc(Cl)cc(Cl)c1N)C(C)C the Potency was inconclusive: 16.4 µM [cytotoxic, partial curve]. For CCCCCCCC[n+]1cccc2c3ccccc3ccc21, the “activity change, negative = cytotoxicity” value was inactive: -15.3%. With O=[N+]([O-])c1cccc(C2NCC(c3ccccc3Cl)c3c2[nH]c2ccccc32)c1 (centres undefined) the Potency was active: 16.4 µM. For CC(=O)c1c(C)[nH]c(C(=O)NCc2ccc(F)cc2)c1C, the Potency was inconclusive: 16.4 µM [cytotoxic, partial curve, poor fit]. For CN(C(=O)CSc1nc2ccccc2[nH]1)C1CCS(=O)(=O)C1 (centres undefined), the “activity change, negative = cytotoxicity” value was inactive: 0%. With CC1CC(C)CN(C(=O)c2cn(C)c3ccc(S(=O)(=O)N(C)C)cc3c2=O)C1 (centres undefined) the Potency was inconclusive: 29.1 µM [rising, partial curve, poor fit]. For Cc1ccc(NC(=S)N(CCN(C)C)Cc2cc3cc(C)ccc3[nH]c2=O)cc1, the Potency was active: 23.1 µM. For Cc1cccc(C(=O)Nc2sc3c(c2C(=O)O)CCCC3)c1, the Potency was active: 7.31 µM and inconclusive: 13 µM [cytotoxic, partial curve]. In the case of Cc1ccccc1NC(=S)NCCSc1ccc(Cl)cc1, the Potency is reported as inconclusive: 16.4 µM [cytotoxic, single point]. In the case of COc1ccc(N(CC(=O)N2CCN(c3ccc(F)cc3)CC2)S(=O)(=O)c2c(C)nn(C)c2C)cc1, the “activity change, negative = cytotoxicity” value is reported as inactive: 0%. For CCn1cc(C(=O)NCC(C)C)c(=O)c2cc(F)c(N3CCN(C)CC3)cc21, the “activity change, negative = cytotoxicity” value was inactive: 0.931%. For CCC[C@H]1NC(=O)[C@H](C)N(C)C(=O)C(C)(C)C(=O)C(C)NC(=O)[C@H](Cc2ccc(OC)cc2)N(C)C(=O)[C@H](C(C)C)N(C)C(=O)CNC(=O)[C@H](CC(C)C)N(C)C(=O)CNC(=O)[C@H]([C@@H](C)CC)OC(=O)[C@H]1C (some centres undefined), the “activity change, negative = cytotoxicity” value was inactive: -0.835%. With CCOc1ccc(C(C(=O)NCC2CCCO2)N(Cc2cccnc2)C(=O)c2snc(C(N)=O)c2N)cc1 (centres undefined) the “activity change, negative = cytotoxicity” value was inactive: 3.26%. With COc1cc(OC)cc(C(=O)N[C@H](C(=O)NNC(=O)c2ccc(Br)cc2)C(C)C)c1 the “activity change, negative = cytotoxicity” value was inactive: -1.18%. With COc1ccc(CNC(=O)c2ccc(-c3c(C)noc3C)c3ccoc23)cc1OC the Potency was inconclusive: 18.4 µM [cytotoxic, partial curve, poor fit]. With CCOc1ccc(OCC)c(NC(=O)CSc2nc3c(c(=O)n(C)c(=O)n3C)n2C(C)C)c1 the Potency was active: 18.4 µM. In the case of Cc1ccccc1-n1ncc2c1CC(C)(C)CC2NC(=O)c1ccncc1 (centres undefined), the Potency is reported as inconclusive: 9.2 µM [cytotoxic, partial curve, poor fit]. With O=S(NCc1ccccc1)C12CC3CC(CC(C3)C1)C2 (centres undefined) the “activity change, negative = cytotoxicity” value was inactive: 15%. For O=C(CN1CCCC1c1ccc2c(c1)OCCO2)NC(=O)Nc1ccccc1F (centres undefined), the “activity change, negative = cytotoxicity” value was inactive: -11%. In the case of O=C(Nc1ccc(Cl)cc1)c1ccc(Br)cc1F, the “activity change, negative = cytotoxicity” value is reported as inactive: -18.1%. In the case of CCOC(=O)C1CCN(CC(=O)Nc2cc(S(=O)(=O)N3CCOCC3)ccc2C)CC1, the Potency is reported as inconclusive: 11.6 µM [cytotoxic, partial curve]. With O=C(CSc1nnc(-c2ccncc2)o1)c1cccc([N+](=O)[O-])c1 the “activity change, negative = cytotoxicity” value was inactive: -4.66%. In the case of COc1ccc(NS(=O)(=O)c2ccc3c(c2)n(C)c(=O)c(=O)n3C)cc1Cl, the Potency is reported as inconclusive: 0.0046 µM [rising, full curve, poor fit]. For COc1cc(NC(=O)Cn2cnc(S(=O)(=O)N3CCCCC3)c2)cc(OC)c1OC, the Potency was inconclusive: 23.1 µM [rising, partial curve, poor fit]. For CSC1=NSC2=NC(=O)/C(=C/c3coc4ccccc4c3=O)C(=N)N12, the Potency was inconclusive: 18.4 µM [rising, single point]. In the case of COc1ccc(-n2c(SCC(=O)NCC3CCCO3)nc3ccccc3c2=O)cc1Cl (centres undefined), the “activity change, negative = cytotoxicity” value is reported as inactive: 7.97%. In the case of Cc1ccc(CNC(=O)c2cnn(-c3ccc(F)cc3F)c2C2CCN(C(=O)OC(C)(C)C)CC2)cc1, the “activity change, negative = cytotoxicity” value is reported as inactive: -4.56%. With CCCCC(C(=O)NC1CCCC1)N(C(=O)c1snc(C(N)=O)c1N)c1ccc(OCC)cc1 (centres undefined) the Potency was inconclusive: 4.11 µM [cytotoxic, full curve]. For COc1cccc(CNC(=O)CC(c2ccc(C)cc2)N2Cc3ccccc3C2=O)c1 (centres undefined), the “activity change, negative = cytotoxicity” value was inactive: -12.3%. With Cc1cc(NC(=O)c2cccc(S(=O)(=O)N3CCCC3)c2)no1 the Potency was inconclusive: 23.1 µM [cytotoxic, partial curve]. In the case of O=C(c1[nH]ncc1[N+](=O)[O-])N1CCOCC1, the Potency is reported as inconclusive: 0.517 µM [rising, full curve]. With Cc1cc(-n2c(SCc3ccccc3F)nc3n[nH]c(C)c3c2=N)ccc1Cl the Potency was inconclusive: 29.1 µM [cytotoxic, single point]. For CCCCOc1ccc(/C=N/NC(=S)Nc2cccc(C)c2C)cc1, the Potency was inconclusive: 23.1 µM [cytotoxic, partial curve, poor fit]. In the case of COc1cc(S(=O)(=O)Nc2ccc3nc(C)sc3c2)ccc1NC(C)=O, the “activity change, negative = cytotoxicity” value is reported as inactive: 2.18%. With O=C(CN(c1ccccc1F)S(=O)(=O)c1ccccc1)NC1CCCCCC1 the Potency was active: 4.61 µM. For Cc1ccc(-c2cc(C(=O)O)c3sc(N4CCCCC4)nc3n2)cc1, the Potency was inconclusive: 29.1 µM [rising, single point]. In the case of Cc1cc(Br)ccc1OCCNCc1ccccc1, the “activity change, negative = cytotoxicity” value is reported as inactive: 6.02%. For COc1cccc(/C=C/C(=O)OCC(=O)NC2CCCC2)c1, the Potency was inconclusive: 14.6 µM [rising, single point]. In the case of CS(=O)(=O)N1CCN(c2ccccc2NC(=O)CSc2ccc(Cl)cc2)CC1, the Potency is reported as inconclusive: 2.91 µM [cytotoxic, partial curve, poor fit].
